Measurements as given in patent publication US4699981A, “Cephalosporin derivatives” (Taisho Pharmaceutical Co., Ltd., priority 1985, dated 1987).

Assay: Concentration of the compound in blood after oral administration to rats (bioassay)
Type: in vivo, Male wister rats
Details: rat, 50 mg/kg
Description: Male wister rats (7 weeks old) were administered orally with the test compound, and the change of the concentration of the compound in blood was measured.
Dosage of the test compound: 50 mg/kg
Quantitative method: Bioassy
test bacterium: Escherichia coli SC507)

Question: What does the source list for CC1=C(C(=O)O)N2C(=O)[C@@H](NC(=O)[C@H](N)c3ccccc3)[C@H]2SC1 [YY, Cefalexin, reference compound]?
Answer: concentration at 1 h (1.0 hour): 14800 ng/mL; concentration at 2 h (2.0 hours): 11200 ng/mL; concentration at 4 h (4.0 hours): 3100 ng/mL
